Source: PubChem BioAssay AID1259308 (NCATS, 2017)
This is an unselected part of about 59,000 reagents tested. In the full data, about 1,510 (2.6%) were called active. 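Calls use total luciferase alone and ignore viability, so some active siRNAs may act by altering cell number.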 Reagents against one gene are numbered here. Further read-outs or replicates are left out here.

Test: 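Knock-downs that increase output of a recombinant reporter protein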 (primary screen)
System: human HEK293 embryonic kidney cells stably expressing firefly luciferase (HEK-CMV-Luc2-Hygro)
Reagents: single siRNA against human genes, 0.8 pmol siRNA per well
Duration: 72 h
Measurement: 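Reporter luminescence and viable-cell signal on separate replicate plates, given as percent of non-targeting control and median/MAD z-scores, plus per-cell luciferase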
Reading the numbers: total luciferase, z-score and total luciferase, % of control: higher = more reporter protein produced; luciferase per cell, z-score: higher = more reporter output per viable cell
Rule for the call: 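Active when the median/MAD z-score for overall luciferase is greater than 3; a gene was taken forward for validation with new siRNAs if at least two of its three siRNAs passed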
Calls: active = raised luciferase; inactive = no rise

gene	reagent no.	total luciferase, z-score	total luciferase, % of control	luciferase per cell, z-score	Outcome
UCN3	1	-0.341	75.1	0.368	inactive
UCN3	2	-0.0397	81.1	-0.566	inactive
UCN3	3	-1.66	48.9	-0.00206	inactive
GATA2	1	1.12	104	1.96	inactive
GATA2	2	0.146	84.8	0.0271	inactive
GATA2	3	-1.14	59.2	0.0214	inactive
OR4F15	1	-1.28	56.4	-0.873	inactive
OR4F15	2	-1.1	60	-1.42	inactive
OR4F15	3	-2.43	33.5	-2.39	inactive
POR	1	1.5	112	0.965	inactive
POR	2	0.0933	83.7	-0.129	inactive
POR	3	-0.847	65	-0.825	inactive
ZNF649	1	-0.0593	80.7	0.579	inactive
ZNF649	2	0.505	91.9	1.13	inactive
ZNF649	3	1.94	120	2.45	inactive
DNAJB1	1	1.28	107	1.39	inactive
DNAJB1	2	-0.27	76.5	0.488	inactive
DNAJB1	3	0.348	88.8	-0.42	inactive
CCDC120	1	0.531	92.4	0.566	inactive
CCDC120	2	-0.832	65.3	-0.81	inactive
CCDC120	3	-0.929	63.4	-0.659	inactive
FAM151B	1	0.782	97.4	0.403	inactive
FAM151B	2	1.73	116	1.7	inactive
FAM151B	3	0.193	85.7	-0.36	inactive

No new results follow: 3 of the entries above.
gene	reagent no.	total luciferase, z-score	total luciferase, % of control	luciferase per cell, z-score	Outcome
UCN3	2	-0.0397	81.1	-0.566	inactive
UCN3	3	-1.66	48.9	-0.00206	inactive
GATA2	1	1.12	104	1.96	inactive
